# Test results reported in patent publication US20100285022A1.
# The chains behind the UniProt entries cited, without tags or fusion partners. Residues count along the entry.
# UniProt P03423, residues 66-298: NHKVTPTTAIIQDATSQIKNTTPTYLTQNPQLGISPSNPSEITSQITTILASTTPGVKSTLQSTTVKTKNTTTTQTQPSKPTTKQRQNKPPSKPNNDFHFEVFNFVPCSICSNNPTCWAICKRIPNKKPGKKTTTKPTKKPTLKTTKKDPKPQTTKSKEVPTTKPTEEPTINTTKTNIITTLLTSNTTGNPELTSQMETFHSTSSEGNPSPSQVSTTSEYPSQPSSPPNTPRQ
# Results are given in words; binding and its absence hold for the method and conditions named. Some results given as binding are weak or reduced against the parent protein; the word gives no strength.
# B1: human monoclonal antibody 2D10 (antibody, V domains shown)
# VH: QVQLVQSGPEVKKPGASVRLSCKASGYVFTNYGVSWVRQAPGQGLEWMGWSSPYNGNTYYAQKLKARVTMTTDTSTNTAYMELRSLRSDDTAVYYCGRDMLGVVQAVAGPFDSWGQGTLVTVSS
# VL: DTPMTQSPSSVSASVGDRVTISCRASQGISNSLAWYQQKLGKAPQLLIYAASSLQSGVPSRFSGSGSGTDFTLTISSLQPEDFATYYCQQTNTFPFTFGPGTKVEVR
# B2: murine monoclonal antibody 131-2G (antibody, V domains shown)
# VH: EVQLQQSGPELVKPGTSVKISCKASGYSFTGFTMNWVKQSHGKNLEWFGLINPFNGNTGYNQKFKGKATLTVDKSSSTAFMELLSLTSEDSAVYYCARSGKSYDYEAWFTYWGQGTLVTVSA
# VL: DIVMTQTTLSLPVSLGNQASISCRSSQTIVHTNGNTYLEWYLQKPGQSPKLLIYKVSNRFSGVPDRFSGSGSGTDFILNISRVEAEDLGVYYCFQGSHVPFTFGSGTKLEIKR
# Assays:
# [1] = target: RSV G protein of strain A (Ga protein) (respiratory syncytial virus, strain A (A2)) (UniProt P03423); experiment: reactivity column of Table 1
# [2] = target: Ga derived 12-mer peptide … (SEQ ID NO:9) (respiratory syncytial virus, strain A (A2)); experiment: peptide array, 131-2G at 1 µg/ml, chemiluminescence
Binder,binding [1],binding [2]
B1,binds,
B2,,binds
